Measurements: article PMC7413540
Results are given in words; binding and its absence hold for the method and conditions named. In cells and extracts the contact can be indirect. Some binding calls cover weakened binding; strength is not graded here.

Sequences of proteins named here, by UniProt entry; tags and fusion partners are left off.
UniProt P38398: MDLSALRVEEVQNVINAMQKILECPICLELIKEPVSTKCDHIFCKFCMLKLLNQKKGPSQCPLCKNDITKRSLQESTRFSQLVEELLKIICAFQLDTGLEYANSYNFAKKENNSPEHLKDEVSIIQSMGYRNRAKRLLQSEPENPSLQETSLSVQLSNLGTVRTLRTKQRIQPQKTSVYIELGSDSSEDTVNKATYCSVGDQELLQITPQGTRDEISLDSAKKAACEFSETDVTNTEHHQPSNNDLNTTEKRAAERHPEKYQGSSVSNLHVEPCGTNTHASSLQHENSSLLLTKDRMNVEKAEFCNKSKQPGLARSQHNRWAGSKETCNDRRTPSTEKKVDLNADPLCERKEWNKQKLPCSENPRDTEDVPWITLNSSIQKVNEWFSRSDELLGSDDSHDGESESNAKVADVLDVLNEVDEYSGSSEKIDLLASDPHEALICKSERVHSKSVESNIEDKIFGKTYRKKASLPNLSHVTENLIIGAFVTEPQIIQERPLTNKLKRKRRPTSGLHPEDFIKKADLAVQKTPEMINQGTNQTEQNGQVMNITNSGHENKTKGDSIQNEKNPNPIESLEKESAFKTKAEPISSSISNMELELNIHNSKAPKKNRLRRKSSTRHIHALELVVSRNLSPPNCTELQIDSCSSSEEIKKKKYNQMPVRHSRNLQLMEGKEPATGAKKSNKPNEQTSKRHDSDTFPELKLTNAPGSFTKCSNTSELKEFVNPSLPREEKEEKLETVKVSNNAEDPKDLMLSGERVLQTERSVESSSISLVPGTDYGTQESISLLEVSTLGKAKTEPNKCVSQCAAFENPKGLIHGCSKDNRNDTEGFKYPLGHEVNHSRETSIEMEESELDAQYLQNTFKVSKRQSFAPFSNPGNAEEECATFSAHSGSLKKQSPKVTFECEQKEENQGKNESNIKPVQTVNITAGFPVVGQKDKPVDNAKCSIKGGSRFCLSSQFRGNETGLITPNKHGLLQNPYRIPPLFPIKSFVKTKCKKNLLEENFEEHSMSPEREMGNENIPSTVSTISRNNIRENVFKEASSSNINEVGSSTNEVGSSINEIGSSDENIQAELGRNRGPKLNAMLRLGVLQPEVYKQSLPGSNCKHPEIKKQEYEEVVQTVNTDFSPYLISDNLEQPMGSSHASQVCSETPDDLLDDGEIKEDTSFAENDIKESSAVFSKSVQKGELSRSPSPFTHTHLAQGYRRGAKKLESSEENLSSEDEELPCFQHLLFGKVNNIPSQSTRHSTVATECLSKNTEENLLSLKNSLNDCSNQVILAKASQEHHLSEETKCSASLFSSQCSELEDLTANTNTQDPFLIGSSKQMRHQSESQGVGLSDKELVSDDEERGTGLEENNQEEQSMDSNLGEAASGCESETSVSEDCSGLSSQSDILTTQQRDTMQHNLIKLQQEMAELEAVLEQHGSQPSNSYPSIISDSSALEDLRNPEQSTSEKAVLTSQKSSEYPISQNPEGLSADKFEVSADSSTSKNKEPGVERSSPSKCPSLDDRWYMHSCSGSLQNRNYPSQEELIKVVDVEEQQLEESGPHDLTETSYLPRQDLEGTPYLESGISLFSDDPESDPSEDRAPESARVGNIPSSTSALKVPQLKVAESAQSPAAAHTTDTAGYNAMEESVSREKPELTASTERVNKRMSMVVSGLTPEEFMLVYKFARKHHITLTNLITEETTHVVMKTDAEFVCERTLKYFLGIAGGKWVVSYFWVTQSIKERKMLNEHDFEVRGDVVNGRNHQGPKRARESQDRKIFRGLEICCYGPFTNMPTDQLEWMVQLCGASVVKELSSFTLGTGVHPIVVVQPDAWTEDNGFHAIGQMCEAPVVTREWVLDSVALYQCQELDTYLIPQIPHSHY
UniProt Q99873: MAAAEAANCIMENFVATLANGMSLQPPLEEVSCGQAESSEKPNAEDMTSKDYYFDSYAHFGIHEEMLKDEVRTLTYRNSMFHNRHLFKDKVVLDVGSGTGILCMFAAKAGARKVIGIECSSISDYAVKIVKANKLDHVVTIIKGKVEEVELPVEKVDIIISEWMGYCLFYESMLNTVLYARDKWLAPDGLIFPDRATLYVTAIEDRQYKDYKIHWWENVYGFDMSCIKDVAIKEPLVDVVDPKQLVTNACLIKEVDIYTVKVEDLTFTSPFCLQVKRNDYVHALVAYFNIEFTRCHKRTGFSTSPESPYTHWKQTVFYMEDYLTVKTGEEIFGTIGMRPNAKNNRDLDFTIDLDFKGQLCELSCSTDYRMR
UniProt P10415: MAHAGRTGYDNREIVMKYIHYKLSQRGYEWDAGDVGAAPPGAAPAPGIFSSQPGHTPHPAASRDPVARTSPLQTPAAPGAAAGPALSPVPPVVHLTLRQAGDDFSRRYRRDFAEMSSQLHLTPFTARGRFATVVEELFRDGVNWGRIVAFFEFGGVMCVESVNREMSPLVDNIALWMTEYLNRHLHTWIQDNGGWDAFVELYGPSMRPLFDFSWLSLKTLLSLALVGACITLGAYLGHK

Tests used:
[1] = target: BRCA1 (human (endogenous in MCF7 and MDA-MB-231)) (UniProt P38398); experiment: co-IP; 1 mg cytosolic extracts of MCF7 and MDA-MB-231 cells, without and at times after IR (10 Gy); immunoprecipitated with anti-BRCA1 (clone 6B4), Protein G magnetic beads, 4 °C; immunoblot
[2] = target: BRCA1 (human (endogenous in MCF7 and MDA-MB-231)) (UniProt P38398); experiment: co-IP; 1 mg total extracts of siControl MCF7 cells at times after IR (10 Gy); immunoprecipitated with anti-BRCA1 (clone 6B4); immunoblot
[3] = target: BRCA1 (human (endogenous in MCF7 and MDA-MB-231)) (UniProt P38398); experiment: co-IP; 1 mg total extracts of MCF7 cells, non-irradiated siControl cells, and siPRMT1 cells without and after IR (10 Gy); immunoprecipitated with anti-BRCA1 (clone 6B4); immunoblot

binding [1] | binding [3] | Substance | binding [2]
binds |  | PRMT1 (from UniProt Q99873 1-371) (enzyme) | 
 | binds | Bcl-2 (from UniProt P10415 1-239) | no binding (condition: after IR (10 Gy), siControl cells)
